Source: paper PMC6949099
No constants are given. Whether binding was seen depends on the method and setting. Binding seen in cells or lysates may run through a third protein. Some binding calls cover weakened binding; strength is not graded here.

T1: Klotho (mouse (endogenous in C57/6J cartilage and in mouse chondrocytes)) (UniProt O35082)
T1 sequence: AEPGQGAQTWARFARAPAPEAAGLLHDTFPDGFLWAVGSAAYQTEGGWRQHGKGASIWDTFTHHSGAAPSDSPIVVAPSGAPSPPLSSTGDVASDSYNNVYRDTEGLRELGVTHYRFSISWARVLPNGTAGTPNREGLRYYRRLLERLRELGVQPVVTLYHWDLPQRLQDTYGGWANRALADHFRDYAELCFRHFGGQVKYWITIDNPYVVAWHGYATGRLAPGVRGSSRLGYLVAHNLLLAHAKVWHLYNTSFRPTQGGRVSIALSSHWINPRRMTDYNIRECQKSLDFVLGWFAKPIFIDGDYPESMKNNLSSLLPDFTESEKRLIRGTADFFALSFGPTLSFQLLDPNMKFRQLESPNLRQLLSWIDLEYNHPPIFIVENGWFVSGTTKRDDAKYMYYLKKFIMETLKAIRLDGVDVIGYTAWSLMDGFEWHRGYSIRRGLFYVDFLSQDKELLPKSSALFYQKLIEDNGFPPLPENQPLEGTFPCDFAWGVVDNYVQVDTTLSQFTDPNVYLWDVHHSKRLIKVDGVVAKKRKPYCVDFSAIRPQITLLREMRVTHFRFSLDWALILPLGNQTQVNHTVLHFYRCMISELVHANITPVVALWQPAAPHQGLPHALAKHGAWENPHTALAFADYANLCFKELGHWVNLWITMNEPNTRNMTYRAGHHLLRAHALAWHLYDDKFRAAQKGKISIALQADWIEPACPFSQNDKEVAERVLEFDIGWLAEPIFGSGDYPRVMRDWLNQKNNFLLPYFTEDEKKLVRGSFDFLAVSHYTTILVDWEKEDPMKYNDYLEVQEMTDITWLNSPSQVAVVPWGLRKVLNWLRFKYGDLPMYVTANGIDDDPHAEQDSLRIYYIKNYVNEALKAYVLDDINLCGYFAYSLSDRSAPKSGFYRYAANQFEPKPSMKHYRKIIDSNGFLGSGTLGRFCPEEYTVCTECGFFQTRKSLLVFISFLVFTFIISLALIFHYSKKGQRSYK

T2: Klotho (over-expressed from a lentiviral vector) (UniProt O35082)
T2 sequence: T1 sequence

B1: Wnt4 (ligand, UniProt P22724 23-351)
chain: SNWLYLAKLSSVGSISEEETCEKLKGLIQRQVQMCKRNLEVMDSVRRGAQLAIEECQYQFRNRRWNCSTLDSLPVFGKVVTQGTREAAFVYAISSAGVAFAVTRACSSGELEKCGCDRTVHGVSPQGFQWSGCSDNIAYGVAFSQSFVDVRERSKGASSSRALMNLHNNEAGRKAILTHMRVECKCHGVSGSCEVKTCWRAVPPFRQVGHALKEKFDGATEVEPRRVGSSRALVPRNAQFKPHTDEDLVYLEPSPDFCEQDIRSGVLGTRGRTCNKTSKAIDGCELLCCGRGFHTAQVELAERCGCRFHWCCFVKCRQCQRLVEMHTCR
B2: Wnt7a (ligand, UniProt P24383 32-349)
chain: LGASIICNKIPGLAPRQRAICQSRPDAIIVIGEGSQMGLDECQFQFRNGRWNCSALGERTVFGKELKVGSREAAFTYAIIAAGVAHAITAACTQGNLSDCGCDKEKQGQYHRDEGWKWGGCSADIRYGIGFAKVFVDAREIKQNARTLMNLHNNEAGRKILEENMKLECKCHGVSGSCTTKTCWTTLPQFRELGYVLKDKYNEAVHVEPVRASRNKRPTFLKIKKPLSYRKPMDTDLVYIEKSPNYCEEDPVTGSVGTQGRACNKTAPQASGCDLMCCGRGYNTHQYARVWQCNCKFHWCCYVKCNTCSERTEMYTCK
B3: Wnt1 (ligand, UniProt P04426 28-370)
chain: ANSSGRWWGIVNIASSTNLLTDSKSLQLVLEPSLQLLSRKQRRLIRQNPGILHSVSGGLQSAVRECKWQFRNRRWNCPTAPGPHLFGKIVNRGCRETAFIFAITSAGVTHSVARSCSEGSIESCTCDYRRRGPGGPDWHWGGCSDNIDFGRLFGREFVDSGEKGRDLRFLMNLHNNEAGRTTVFSEMRQECKCHGMSGSCTVRTCWMRLPTLRAVGDVLRDRFDGASRVLYGNRGSNRASRAELLRLEPEDPAHKPPSPHDLVYFEKSPNFCTYSGRLGTAGTAGRACNSSSPALDGCELLCCGRGHRTRTQRVTERCNCTFHWCCHVSCRNCTHTRVLHECL

Target: T1, Klotho (mouse (endogenous in C57/6J cartilage and in mouse chondrocytes))
Assay: co-IP; mouse chondrocytes (cells), with or without cyclic tensile strain (0.1, 0.5, 1 Hz, 48 h), with Klotho over-expression, empty vector or β-catenin knock-down

Q: Which binding does the source give for B1 here?
A: binds

Q: For B2, which binding is on record?
A: binds

Q: With B3 as the binder, how does the binding read?
A: binds

Target: T2, Klotho (over-expressed from a lentiviral vector)
Assay: as above

Q: With B1 as the binder, how does the binding read?
A: binds

Q: For B2, which binding is on record?
A: binds

Q: B3 was tested. Which binding did it give?
A: binds

Target: T1, Klotho (mouse (endogenous in C57/6J cartilage and in mouse chondrocytes))
Assay: co-IP; supernatant of mouse chondrocytes, with or without cyclic tensile strain (0.1, 0.5, 1 Hz, 48 h), with Klotho over-expression, empty vector or β-catenin knock-down

Q: With B1 as the binder, how does the binding read?
A: binds

Q: How did the binding turn out when B2 was run?
A: binds

Q: For B3, which binding is on record?
A: binds

Target: T2, Klotho (over-expressed from a lentiviral vector)
Assay: as above

Q: For B1, which binding is on record?
A: binds

Q: Which binding does the source give for B2 here?
A: binds

Q: For B3, which binding is on record?
A: binds

Target: T1, Klotho (mouse (endogenous in C57/6J cartilage and in mouse chondrocytes))
Assay: co-IP; cartilage tissue of sham-operated and ACLT (OA) mice homogenised in lysis buffer (30 mM Tris-HCl, 150 mM NaCl, 1% Triton X-100, 2 mM EDTA, 10% glycerol); 2 ug antibody against Klotho, 4 h at 4 °C, Protein A/G beads; Western blot of Wnt1, 4 and 7a; the precipitating antibody for Dvl and Frizzled is not told

Q: Which binding does the source give for B1 here?
A: binds

Q: How did the binding turn out when B2 was run?
A: binds

Q: With B3 as the binder, how does the binding read?
A: binds
